Experimental data as given in patent US20250025506A1.
These are yes or no findings as the source states them, for the method shown. Some binding calls cover weakened binding; strength is not graded here. For some assays here: Sequences can lack the tags named with a protein.

Key:
[1] = biological target: T1, recombinant UPK2 extracellular domain (UPK2-His) (Homo sapiens (Human)) (UniProt O00526); assay: ELISA, whole recombinant antibody
T1 sequence: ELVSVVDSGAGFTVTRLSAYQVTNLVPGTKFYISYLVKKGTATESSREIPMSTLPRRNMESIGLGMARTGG

[2] = biological target: T1, recombinant UPK2 extracellular domain (UPK2-His) (Homo sapiens (Human)); assay: ELISA, preliminary specificity analysis (summary of the example)
[3] = biological target: T2, UPK2 antigen on 293T cells (6600, Lenti-UPK2 antigen plasmid) (Homo sapiens (Human)) (UniProt O00526); assay: flow cytometry on 293T cells transiently transfected with plasmid 6600 (FIG. 19)
T2 sequence: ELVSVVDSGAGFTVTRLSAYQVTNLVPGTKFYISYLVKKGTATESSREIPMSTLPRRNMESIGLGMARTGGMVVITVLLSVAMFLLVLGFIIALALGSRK

[4] = biological target: T2, UPK2 antigen on 293T cells (6600, Lenti-UPK2 antigen plasmid) (Homo sapiens (Human)); assay: flow cytometry on 293T cells transiently transfected with plasmid 6600; repeat with 1 ug, 0.3 ug and 0.1 ug of antibody
[5] = biological target: T2, UPK2 antigen on 293T cells (6600, Lenti-UPK2 antigen plasmid) (Homo sapiens (Human)); assay: flow cytometry on 293T cells transiently transfected with plasmid 6600; goat-anti-human FITC secondary (first experiment)

Measured: binding

B1: S2E2 recombinant anti-UPK2 monoclonal antibody (murine-human chimeric) (antibody, V domains shown)
VH: QVKLQQSGPELVRPGASVKMSCKASGYTFTTYWMHWVKQRPGQGLEWIGMIDPSNSDTRLNQKFKDKATLNVDTSSNTAYMHLSSLTSEDSAVYYCTLGGTEYWGQGATLTVSS
VL: SIVMTQSPATLSVTPGDRVSLSCRASQSIGDYLHWFQQKSHESPRLLIKYASQSISGIPSRFSGSGSGSDFTLIINTMEPEDVGVYYCQNAHTYPYTFGGGTKLEIK
binds: [1] | [2] | [3] | [4] | [5]
